Here are results for eight molecules from publication doi:10.1101/2024.12.17.628858.

Chains of the proteins cited; added tags and fusions are not shown. Residues count along the entry.
UniProt Q9NZJ5, residues 30-1116: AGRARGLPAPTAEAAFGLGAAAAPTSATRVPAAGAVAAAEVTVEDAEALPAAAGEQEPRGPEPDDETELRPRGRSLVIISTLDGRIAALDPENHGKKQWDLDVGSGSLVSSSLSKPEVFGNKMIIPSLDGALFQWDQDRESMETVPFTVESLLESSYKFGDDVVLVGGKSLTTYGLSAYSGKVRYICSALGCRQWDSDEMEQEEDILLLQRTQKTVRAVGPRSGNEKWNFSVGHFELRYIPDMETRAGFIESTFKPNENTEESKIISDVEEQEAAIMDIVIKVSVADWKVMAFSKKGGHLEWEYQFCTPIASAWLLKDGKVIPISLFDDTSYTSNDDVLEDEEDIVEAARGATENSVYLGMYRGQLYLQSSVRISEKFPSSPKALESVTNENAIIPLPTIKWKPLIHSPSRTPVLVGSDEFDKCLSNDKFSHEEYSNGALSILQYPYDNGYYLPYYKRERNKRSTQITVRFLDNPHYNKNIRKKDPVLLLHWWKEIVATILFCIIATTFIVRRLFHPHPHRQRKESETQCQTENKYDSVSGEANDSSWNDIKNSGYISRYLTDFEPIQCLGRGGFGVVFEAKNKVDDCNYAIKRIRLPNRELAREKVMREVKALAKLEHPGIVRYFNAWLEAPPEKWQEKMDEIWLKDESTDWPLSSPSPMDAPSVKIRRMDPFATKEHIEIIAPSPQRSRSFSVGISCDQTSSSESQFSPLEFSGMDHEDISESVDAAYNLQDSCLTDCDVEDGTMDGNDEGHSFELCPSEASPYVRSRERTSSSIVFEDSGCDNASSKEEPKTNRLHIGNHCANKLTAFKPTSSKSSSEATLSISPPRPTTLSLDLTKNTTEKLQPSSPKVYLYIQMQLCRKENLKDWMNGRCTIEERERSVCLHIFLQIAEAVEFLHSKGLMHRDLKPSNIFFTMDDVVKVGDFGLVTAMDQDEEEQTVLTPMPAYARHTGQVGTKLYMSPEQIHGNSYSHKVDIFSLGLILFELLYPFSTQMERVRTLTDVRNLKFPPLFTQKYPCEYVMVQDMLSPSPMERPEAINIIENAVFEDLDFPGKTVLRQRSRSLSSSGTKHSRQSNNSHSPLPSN
UniProt O75460, residues 19-977: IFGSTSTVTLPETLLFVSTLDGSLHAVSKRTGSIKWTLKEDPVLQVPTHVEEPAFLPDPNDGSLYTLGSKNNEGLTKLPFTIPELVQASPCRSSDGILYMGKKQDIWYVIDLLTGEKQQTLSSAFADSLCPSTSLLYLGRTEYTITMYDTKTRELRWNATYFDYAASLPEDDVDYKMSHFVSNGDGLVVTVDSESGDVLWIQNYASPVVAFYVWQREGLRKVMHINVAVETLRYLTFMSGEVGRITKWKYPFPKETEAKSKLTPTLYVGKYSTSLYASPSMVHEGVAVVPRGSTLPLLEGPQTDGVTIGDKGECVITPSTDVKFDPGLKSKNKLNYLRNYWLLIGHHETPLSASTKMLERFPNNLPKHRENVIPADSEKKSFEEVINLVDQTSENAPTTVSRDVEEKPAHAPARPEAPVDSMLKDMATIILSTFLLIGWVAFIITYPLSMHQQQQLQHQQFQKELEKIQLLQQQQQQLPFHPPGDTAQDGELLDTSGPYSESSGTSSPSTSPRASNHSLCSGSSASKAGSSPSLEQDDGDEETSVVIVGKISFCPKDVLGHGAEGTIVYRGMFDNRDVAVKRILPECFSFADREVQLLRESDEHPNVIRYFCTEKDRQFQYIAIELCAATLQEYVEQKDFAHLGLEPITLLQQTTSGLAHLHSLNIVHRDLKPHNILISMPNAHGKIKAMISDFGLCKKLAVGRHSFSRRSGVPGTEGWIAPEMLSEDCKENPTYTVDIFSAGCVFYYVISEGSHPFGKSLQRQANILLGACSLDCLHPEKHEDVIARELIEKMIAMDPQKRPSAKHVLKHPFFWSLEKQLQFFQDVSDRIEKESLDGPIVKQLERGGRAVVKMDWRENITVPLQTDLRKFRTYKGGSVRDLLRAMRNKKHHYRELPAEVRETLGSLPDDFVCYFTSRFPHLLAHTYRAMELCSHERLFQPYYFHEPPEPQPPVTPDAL
UniProt Q92616: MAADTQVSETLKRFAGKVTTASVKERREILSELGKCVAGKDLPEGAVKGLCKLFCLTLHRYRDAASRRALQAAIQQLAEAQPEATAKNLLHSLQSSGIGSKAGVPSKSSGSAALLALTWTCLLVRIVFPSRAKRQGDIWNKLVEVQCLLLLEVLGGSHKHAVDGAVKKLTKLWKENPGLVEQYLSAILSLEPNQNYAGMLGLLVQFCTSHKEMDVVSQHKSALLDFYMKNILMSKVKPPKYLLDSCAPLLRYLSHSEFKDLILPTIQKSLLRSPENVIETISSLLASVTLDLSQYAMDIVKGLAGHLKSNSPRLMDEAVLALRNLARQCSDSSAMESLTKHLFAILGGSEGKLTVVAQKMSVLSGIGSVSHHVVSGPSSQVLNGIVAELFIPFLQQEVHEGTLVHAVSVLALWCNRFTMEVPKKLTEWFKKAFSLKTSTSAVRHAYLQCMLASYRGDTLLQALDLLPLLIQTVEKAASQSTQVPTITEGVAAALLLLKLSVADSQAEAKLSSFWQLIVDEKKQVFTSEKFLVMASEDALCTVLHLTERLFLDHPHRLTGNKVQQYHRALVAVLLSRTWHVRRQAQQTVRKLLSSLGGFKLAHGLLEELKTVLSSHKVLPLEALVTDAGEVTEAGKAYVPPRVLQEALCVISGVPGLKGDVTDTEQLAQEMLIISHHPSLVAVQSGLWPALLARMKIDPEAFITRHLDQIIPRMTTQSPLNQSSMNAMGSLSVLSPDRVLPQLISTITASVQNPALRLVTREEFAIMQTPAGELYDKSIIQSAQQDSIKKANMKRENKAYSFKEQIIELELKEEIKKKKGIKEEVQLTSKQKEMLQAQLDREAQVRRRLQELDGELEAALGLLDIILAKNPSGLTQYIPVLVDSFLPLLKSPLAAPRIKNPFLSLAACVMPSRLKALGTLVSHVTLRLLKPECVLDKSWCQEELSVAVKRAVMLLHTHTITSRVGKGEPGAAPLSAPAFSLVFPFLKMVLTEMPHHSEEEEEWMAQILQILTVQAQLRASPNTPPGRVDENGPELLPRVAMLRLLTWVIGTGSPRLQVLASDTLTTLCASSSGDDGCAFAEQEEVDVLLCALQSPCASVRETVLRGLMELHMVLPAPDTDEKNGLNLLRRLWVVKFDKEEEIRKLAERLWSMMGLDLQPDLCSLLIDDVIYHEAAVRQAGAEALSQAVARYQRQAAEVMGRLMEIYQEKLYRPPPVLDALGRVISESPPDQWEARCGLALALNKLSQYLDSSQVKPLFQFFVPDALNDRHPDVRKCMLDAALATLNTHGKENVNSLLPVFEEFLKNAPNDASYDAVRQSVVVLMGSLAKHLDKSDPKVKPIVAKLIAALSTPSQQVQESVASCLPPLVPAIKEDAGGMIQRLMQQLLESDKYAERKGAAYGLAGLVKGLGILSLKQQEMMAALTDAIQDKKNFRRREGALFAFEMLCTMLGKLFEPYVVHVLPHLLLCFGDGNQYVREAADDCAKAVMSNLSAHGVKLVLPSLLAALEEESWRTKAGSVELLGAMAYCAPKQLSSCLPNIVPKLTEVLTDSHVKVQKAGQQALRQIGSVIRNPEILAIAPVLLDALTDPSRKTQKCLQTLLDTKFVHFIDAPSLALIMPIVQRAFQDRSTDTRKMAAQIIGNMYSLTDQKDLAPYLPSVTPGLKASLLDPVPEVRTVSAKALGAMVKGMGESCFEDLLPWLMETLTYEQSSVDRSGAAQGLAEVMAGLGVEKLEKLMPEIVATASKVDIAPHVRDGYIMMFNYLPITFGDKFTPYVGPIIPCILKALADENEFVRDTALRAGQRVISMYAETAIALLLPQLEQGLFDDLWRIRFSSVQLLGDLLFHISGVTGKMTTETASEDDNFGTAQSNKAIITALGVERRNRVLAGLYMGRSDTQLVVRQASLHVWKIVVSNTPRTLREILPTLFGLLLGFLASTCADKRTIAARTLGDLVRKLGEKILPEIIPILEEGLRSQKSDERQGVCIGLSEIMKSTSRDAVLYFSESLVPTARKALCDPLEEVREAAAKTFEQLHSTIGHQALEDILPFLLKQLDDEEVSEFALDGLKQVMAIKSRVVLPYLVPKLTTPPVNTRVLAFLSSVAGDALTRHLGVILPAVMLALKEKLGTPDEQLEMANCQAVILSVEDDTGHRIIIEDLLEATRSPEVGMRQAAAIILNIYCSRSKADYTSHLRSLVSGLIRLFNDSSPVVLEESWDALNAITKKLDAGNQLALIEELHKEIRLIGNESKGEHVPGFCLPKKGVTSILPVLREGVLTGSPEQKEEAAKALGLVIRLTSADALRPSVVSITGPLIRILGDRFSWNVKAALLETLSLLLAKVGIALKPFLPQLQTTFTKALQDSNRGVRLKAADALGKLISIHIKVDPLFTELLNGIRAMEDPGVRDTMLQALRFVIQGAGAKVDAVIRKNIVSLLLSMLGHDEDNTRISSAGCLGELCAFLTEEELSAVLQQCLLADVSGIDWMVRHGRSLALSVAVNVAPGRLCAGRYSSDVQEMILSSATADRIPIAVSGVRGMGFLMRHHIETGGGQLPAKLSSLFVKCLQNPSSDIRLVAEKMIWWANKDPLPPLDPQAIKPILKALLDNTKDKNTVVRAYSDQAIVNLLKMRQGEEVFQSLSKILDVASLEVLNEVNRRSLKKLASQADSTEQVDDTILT
UniProt P52732: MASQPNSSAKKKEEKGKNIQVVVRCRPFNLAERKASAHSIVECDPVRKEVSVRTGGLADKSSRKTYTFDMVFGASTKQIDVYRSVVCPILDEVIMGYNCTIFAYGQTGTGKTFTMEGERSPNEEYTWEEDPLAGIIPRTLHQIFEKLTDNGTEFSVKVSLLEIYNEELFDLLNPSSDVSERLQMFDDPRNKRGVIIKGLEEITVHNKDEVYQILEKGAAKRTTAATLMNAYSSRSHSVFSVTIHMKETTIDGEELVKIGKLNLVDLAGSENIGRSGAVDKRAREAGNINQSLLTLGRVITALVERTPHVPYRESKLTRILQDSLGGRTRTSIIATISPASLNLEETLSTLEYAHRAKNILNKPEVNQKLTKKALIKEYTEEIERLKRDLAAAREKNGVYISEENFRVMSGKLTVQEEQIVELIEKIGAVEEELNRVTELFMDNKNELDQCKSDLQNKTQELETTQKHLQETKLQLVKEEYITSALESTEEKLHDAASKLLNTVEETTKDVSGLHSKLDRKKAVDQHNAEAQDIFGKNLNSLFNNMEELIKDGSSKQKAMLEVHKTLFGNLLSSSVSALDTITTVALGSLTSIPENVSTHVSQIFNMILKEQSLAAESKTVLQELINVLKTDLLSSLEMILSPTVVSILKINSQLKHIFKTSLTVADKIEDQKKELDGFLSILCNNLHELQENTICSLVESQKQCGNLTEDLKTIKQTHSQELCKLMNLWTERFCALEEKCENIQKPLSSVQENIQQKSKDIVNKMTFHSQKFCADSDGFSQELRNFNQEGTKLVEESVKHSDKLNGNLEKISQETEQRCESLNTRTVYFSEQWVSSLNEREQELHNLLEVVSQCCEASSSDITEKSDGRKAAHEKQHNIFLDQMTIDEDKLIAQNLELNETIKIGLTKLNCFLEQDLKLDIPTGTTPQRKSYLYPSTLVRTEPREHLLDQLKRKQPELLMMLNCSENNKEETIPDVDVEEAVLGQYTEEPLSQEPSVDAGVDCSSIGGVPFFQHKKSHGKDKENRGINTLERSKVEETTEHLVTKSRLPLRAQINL
UniProt Q9UGP8: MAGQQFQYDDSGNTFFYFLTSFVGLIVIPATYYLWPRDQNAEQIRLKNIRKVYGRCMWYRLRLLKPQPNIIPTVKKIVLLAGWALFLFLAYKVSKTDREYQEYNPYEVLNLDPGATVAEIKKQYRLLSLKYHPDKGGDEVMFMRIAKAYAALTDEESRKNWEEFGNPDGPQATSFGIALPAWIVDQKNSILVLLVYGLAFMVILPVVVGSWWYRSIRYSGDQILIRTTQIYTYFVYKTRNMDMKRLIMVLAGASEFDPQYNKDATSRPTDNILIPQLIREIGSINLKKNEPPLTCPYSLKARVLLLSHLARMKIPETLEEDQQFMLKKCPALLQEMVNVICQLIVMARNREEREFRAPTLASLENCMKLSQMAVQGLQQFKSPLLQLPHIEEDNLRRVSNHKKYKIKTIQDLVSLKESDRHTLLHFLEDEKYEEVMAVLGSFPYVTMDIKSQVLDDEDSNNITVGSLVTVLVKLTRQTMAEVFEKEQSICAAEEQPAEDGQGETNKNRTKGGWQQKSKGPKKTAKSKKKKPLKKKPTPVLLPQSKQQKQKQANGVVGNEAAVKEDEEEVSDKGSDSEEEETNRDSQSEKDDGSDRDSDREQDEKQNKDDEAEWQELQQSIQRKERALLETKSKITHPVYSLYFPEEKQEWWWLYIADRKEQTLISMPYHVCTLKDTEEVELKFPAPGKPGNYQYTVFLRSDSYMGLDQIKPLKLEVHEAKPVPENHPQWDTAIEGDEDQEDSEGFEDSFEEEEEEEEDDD

Read-outs that look alike come from different tables or passages of the source. No constants are given. Whether binding was seen depends on the method and setting. In cells and extracts the contact can be indirect. Here binding means that the protein was enriched with, or labelled near, the bait; the list need not be complete.

Common to all, as to assay: affinity purification with mass spectrometry
The target of test [1] is full length PERK (triple FLAG tagged) (UniProt Q9NZJ5).
The target of test [2] is full length IRE1 (triple FLAG tagged) (UniProt O75460).
Test [3] concerns the target full length PERK (triple FLAG tagged) (UniProt Q9NZJ5). The source holds these as a separate data set.
For test [4], the target named is full length IRE1 (triple FLAG tagged) (UniProt O75460). The source holds these as a separate data set.

As to ECHA (from UniProt P40939 37-763), in test [1], the binding result is “binds”.

Regarding GCN1 (from UniProt Q92616 1-2671), the binding result in test [2] and in test [3] was “binds” each time.

Regarding ITPR3 (from UniProt Q14573 1-2671), the binding result in test [4] is given as “binds”.

As for KIF11 (from UniProt P52732 1-1056), the binding result in test [2] and in test [3] was “binds” throughout.

Take PRKDC (from UniProt P78527 1-4128): the binding entry in test [1] is on record as “binds”.

In the case of SEC63 (from UniProt Q9UGP8 1-760), the binding result in test [4] and in test [2] was “binds” throughout.

As for TERA (from UniProt P55072 1-806), the binding entry in test [4] and in test [1] was “binds” each time.

B1: RPN1 (protein, UniProt P04843 24-607)
chain: ASSEAPPLINEDVKRTVDLSSHLAKVTAEVVLAHLGGGSTSRATSFLLALEPELEARLAHLGVQVKGEDEEENNLEVRETKIKGKSGRFFTVKLPVALDPGAKISVIVETVYTHVLHPYPTQITQSEKQFVVFEGNHYFYSPYPTKTQTMRVKLASRNVESYTKLGNPTRSEDLLDYGPFRDVPAYSQDTFKVHYENNSPFLTITSMTRVIEVSHWGNIAVEENVDLKHTGAVLKGPFSRYDYQRQPDSGISSIRSFKTILPAAAQDVYYRDEIGNVSTSHLLILDDSVEMEIRPRFPLFGGWKTHYIVGYNLPSYEYLYNLGDQYALKMRFVDHVFDEQVIDSLTVKIILPEGAKNIEIDSPYEISRAPDELHYTYLDTFGRPVIVAYKKNLVEQHIQDIVVHYTFNKVLMLQEPLLVVAAFYILFFTVIIYVRLDFSITKDPAAEARMKVACITEQVLTLVNKRIGLYRHFDETVNRYKQSRDISTLNSGKKSLETEHKALTSEIALLQSRLKTEGSDLCDRVSEMQKLDAQVKELVLKSAVEAERLVAGKLKKDTYIENEKLISGKRQELVTKIDHILDAL
As for B1, the binding result in test [2] and in test [3] was “binds” each time.
